PubChem BioAssay AID2685 (National Center for Advancing Translational Sciences (NCATS), 2010)
Some of the results follow. These are further read-outs of the screen, such as a control signal, another cell line or another target. No call is given for them. Most of these compounds were active or inconclusive in the main read-out, so they are no random draw. Words in brackets tell the shape of the fitted curve; partial curves, single points and poor fits give uncertain potencies.

Assay: qHTS Assay for Lipid Storage Modulators in Drosophila S3 Cells;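 as to cell number change: cells counted by Cell Tracker Red CMTPX staining in the red channel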
Details: BODIPY lipid droplet fluorescence, 18-24 h; for cell number change: measured here: cell count max response, cells fed with added oleic acid
Outline: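 Drosophila S3 cells loaded with oleic acid (400 uM, as added) and compounds at several concentrations; lipid droplets imaged by 488-nm laser-scanning cytometry, 500–530 nm intensity and object ratio to cell channel. Percent activity normalized to 20 uM Triacsin C.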

[1] = measured here: lipid fluorescence (Fed channel) AC50, cells fed with added oleic acid
[2] = measured here: cell number channel AC50, cells fed with added oleic acid

Compound: Cc1cc(C)nc(SCc2ccc(C(=O)N/N=C/c3cccc(O)c3O)cc2)n1
- cell number change: -10.7%
- AC50 [1]: 29.1 µM [falling, single point]

Compound: NC(=O)c1ccc(-c2csnn2)cc1
- AC50 [1]: 29.1 µM [rising, single point]

Compound: Cc1cccc(OCc2nnc(SCC(=O)N3c4ccccc4CC3C)n2C)c1C (stereo unspecified)
- cell number change: -52.5%
- AC50 [2]: 14.6 µM [falling, single point]
- AC50 [1]: 14.6 µM [falling, partial curve]

Compound: CN(Cc1ccco1)C(=O)CN1C(=O)NC2(CCCCC2)C1=O
- cell number change: -20.2%
- AC50 [1]: 0.00461 µM [rising, full curve, poor fit]

Compound: O=C(OC1CCOC1=O)c1cc(-c2ccccc2)nc2ccccc12 (stereo unspecified)
- cell number change: 0.676%
- AC50 [2]: 0.651 µM [falling, single point]

Compound: CCc1ccc(/C(C)=N/NS(=O)(=O)c2ccc(OC)cc2)s1
- AC50 [1]: 6.51 µM [falling, single point]

Compound: COc1ccc(NC(=O)c2ccccc2-c2ccc(C(F)(F)F)cc2)cc1S(=O)(=O)N1CCOCC1
- cell number change: 25.6%
- AC50 [1]: 14.6 µM [rising, partial curve]

Compound: Cc1ccc(NC(=O)NCCN2CCN(C(=O)Nc3ccc(C)cc3)CC2)cc1
- cell number change: 2.63%
- AC50 [1]: 0.794 µM [rising, partial curve, poor fit]

Compound: O=C(NCc1cccnc1)/C(=C/c1ccc(-c2cccc(Cl)c2)o1)S(=O)(=O)c1ccccc1
- cell number change: -19.6%
- AC50 [1]: 0.092 µM [rising, full curve, poor fit]

Compound: O=C(COC(=O)CCC(=O)c1cccs1)NCc1ccccc1
- cell number change: -54.6%
- AC50 [2]: 3.66 µM [falling, full curve]
- AC50 [1]: 8.2 µM [falling, partial curve]

Compound: Cc1ccc2nc(CCc3ccc(N)cc3)[nH]c2c1
- cell number change: -13.5%

Compound: O=C(COC(=O)c1ccc(CO)cc1)Nc1ccc(OC(F)F)cc1
- cell number change: 19.4%
- AC50 [1]: 6.51 µM [falling, single point]

Compound: COc1ccc(/C=C2\C(=O)N(Cc3ccc(F)cc3)CC(=O)N2Cc2ccccc2)cc1
- AC50 [1]: 3.66 µM [rising, single point]

Compound: COc1cc(NC(=O)C2CCCN(S(=O)(=O)c3ccc4[nH]c(=O)ccc4c3)C2)cc(OC)c1 (stereo unspecified)
- cell number change: 47.6%
- AC50 [2]: 25.9 µM [rising, single point]

Compound: Cc1cc(CNC(=O)C2CCC(=O)N(Cc3cccc(C(F)(F)F)c3)C2)no1 (stereo unspecified)
- cell number change: 35.8%
- AC50 [2]: 4.11 µM [rising, full curve, poor fit]
- AC50 [1]: 32.6 µM [rising, single point]

Compound: CCOC(=O)C1=C(C)NC2=C(C(=O)C(C(=O)OCC)C(c3ccccc3OC)C2)C1c1ccccn1 (stereo unspecified)
- cell number change: -19.7%

Compound: Cc1ccc(NC(=O)c2cc(C)n(-c3cccc(C)c3)c2C)cc1
- cell number change: 23.9%
- AC50 [2]: 0.13 µM [rising, full curve, poor fit]
- AC50 [1]: 18.4 µM [rising, single point]

Compound: CCOc1ccc(C(=O)NCC(=O)NC(C)CCc2ccccc2)cc1OCC (stereo unspecified)
- cell number change: 5.95%
- AC50 [1]: 29.1 µM [rising, single point]

Compound: C=CCn1c(SCc2c(C)noc2C)nc2cc(C(=O)O)ccc2c1=O
- cell number change: -15.4%
- AC50 [1]: 0.411 µM [rising, full curve, poor fit]

Compound: O=[N+]([O-])c1ccc(N2CCN(S(=O)(=O)c3ccccc3)CC2)cc1N1CCc2ccccc2C1
- cell number change: 19.5%
- AC50 [1]: 0.206 µM [rising, full curve, poor fit]

Compound: COc1ccc(NC(=S)NC23CC4CC(CC(C4)C2)C3)cc1OC
- cell number change: 0.587%

Compound: COCCN(C(=O)c1ccc(N2CCCC2=O)cc1)c1c(N)n(CC(C)C)c(=O)[nH]c1=O
- cell number change: -61.1%
- AC50 [2]: 5.17 µM [falling, full curve]

Compound: CCc1ccc(CN2CCCC(C(=O)Nc3ccc(-c4cscn4)cc3)C2)o1 (stereo unspecified)
- AC50 [1]: 0.116 µM [rising, full curve, poor fit]

Compound: COc1ccc(-c2c(-c3cc(OC)cc(OC)c3)n(C)c3ccc(-c4ccc(S(N)(=O)=O)cc4)cc23)cc1
- cell number change: 2.52%
- AC50 [2]: 1.16 µM [falling, single point]

Compound: Nc1nnc(N)c2ccccc12
- cell number change: -13.7%
- AC50 [1]: 6.51 µM [rising, single point]

Compound: CCn1nnc2cc(C(=O)Nc3cc(Cl)ccc3C)ccc21
- cell number change: -0.519%
- AC50 [1]: 11.6 µM [rising, partial curve, poor fit]

Compound: Cc1nn(CC(=O)N2CCC(C(N)=O)CC2)c(=O)c2nn(-c3ccccc3)c(C)c12
- cell number change: -14.9%

Compound: COCc1nnc(NC(=O)c2ccccc2[N+](=O)[O-])s1
- cell number change: 71.5%
- AC50 [2]: 7.31 µM [rising, partial curve]

Compound: CC(=O)/C(N=Nc1nc2c([nH]1)c(=O)n(C)c(=O)n2C)=C(\C)O
- cell number change: -32.3%

Compound: Cc1cccc(N2CCN(C(=O)C3CCN(S(=O)(=O)N4CCOCC4)CC3)CC2C)c1 (stereo unspecified)
- cell number change: 2.77%
- AC50 [1]: 0.103 µM [rising, full curve, poor fit]

Compound: Cc1nn(-c2ccccc2)nc1CNC(=O)C(C)Cc1ccccc1 (stereo unspecified)
- cell number change: 17.5%
- AC50 [1]: 7.31 µM [rising, partial curve]

Compound: CCn1c(SCC(=O)c2[nH]c(C)c(C(C)=O)c2C)nnc1-c1ccccc1
- cell number change: -11.8%

Compound: Cc1nc(CCNC(=O)CC2C(=O)NCCN2Cc2ccccc2)nc2c1CCC2 (stereo unspecified)
- cell number change: 10.5%

Compound: Cc1ccc(S(=O)(=O)NCC(=O)NCC(=O)OC(C(=O)NC(N)=O)C(C)C)cc1C (stereo unspecified)
- cell number change: 2.77%

Compound: CCOc1ccc(C(=O)COC(=O)c2ccc(-n3cnnn3)cc2)cc1
- cell number change: 9.68%
- AC50 [1]: 25.9 µM [rising, single point]

Compound: C#CC(CC)(CC)NC(=S)Nc1cccc(C(C)=O)c1
- cell number change: -26.6%
- AC50 [1]: 29.1 µM [falling, single point]

Compound: COc1ccc(CCNC(=O)COC(=O)COc2ccc(Cl)cc2)cc1OC
- cell number change: 59.3%
- AC50 [1]: 6.51 µM [falling, single point]

Compound: COc1ccc(N2C(=O)CC(NNC(=O)c3cc(C)oc3C)C2=O)cc1 (stereo unspecified)
- AC50 [2]: 5.8 µM [rising, single point]
- AC50 [1]: 0.058 µM [falling, single point]

Compound: CCCCn1c(-c2csc(CCC)c2)n[nH]c1=S
- cell number change: -31.3%
- AC50 [2]: 16.4 µM [falling, partial curve]
- AC50 [1]: 2.59 µM [falling, partial curve, poor fit]
